Measurements as given in patent publication US20170073690A1, “ANTAGONISTS OF SLC38A9 AND THEIR USE IN THERAPY” (CEMM - Forschungzentrum Fuer Molekulare Medizin GMBH, priority 2014, published 2017).
These are yes or no findings as the source states them, for the method shown. In cells and extracts the contact can be indirect. Some entries that bind do so weakly or less than the wild type.

The chains behind the UniProt entries cited, without tags or fusion partners.
UniProt Q80X95: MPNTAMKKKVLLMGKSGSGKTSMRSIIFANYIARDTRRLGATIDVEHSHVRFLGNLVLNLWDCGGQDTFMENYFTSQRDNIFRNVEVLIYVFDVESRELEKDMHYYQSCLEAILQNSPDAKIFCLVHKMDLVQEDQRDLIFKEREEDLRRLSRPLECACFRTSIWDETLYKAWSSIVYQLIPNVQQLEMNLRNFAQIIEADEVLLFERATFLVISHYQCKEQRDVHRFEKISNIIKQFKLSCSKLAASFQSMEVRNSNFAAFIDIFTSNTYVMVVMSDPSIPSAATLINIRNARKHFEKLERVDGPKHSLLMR

Molecular target: RAGA, murine, endogenous (NIH3T3 and Raw264.7 cells) (mouse) (UniProt Q80X95)
Assay: endogenous co-IP, murine NIH3T3 and Raw264.7 lysates, immunoblot

binding: binds
B1: SLC38A9, murine, endogenous (NIH3T3 and Raw264.7 cells) (protein, mouse, UniProt Q8BGD6 1-560, looked up)
chain: MASVDGDSRHLLSEVEHEVSPGPMNIQFDSSDLRSKRPFYIEPTNIVNVNDVIQRVSDHAAAMNKRIHYYSRLTTPADKALIAPDHVVPAPEECYVYSPLGSAYKLKSYTEGYGKNTSLVTIFMIWNTMMGTSILSIPWGIKQAGFTTGMCVIVLMGLLTLYCCYRVVKSRSTISTSDTSTWEYPDVCKHYFGSFGQWSSLLFSLVSLIGAMIVYWVLMSNFLFNTGKFIFNFIHHINDTDTVLSTNNSNPVICPNAGSGGRPDNSSMIFYNNNTEVQLFEKWWDKSRTVPFYLIGLLLPLLNFKSPSFFSKFNILGTVSVLYLIFVVTLKAVRLGFHLEFHWFVPTEFFVPEIRAQFPQLMGVLTLAFFIHNCIITLLKNNKNQENNVRDLCIAYMLVTLTYLYIGILVFASFPSPPLPKDCIEQNFLDNFPSSDILSFIARIFLLFQMMTVYPLLGYLARVQLLGHIFGDIYPSIFHVLILNLVIVGAGVTMACFYPNIGGIIRYSGAACGLAFVFIYPSLIYIISLHQEERLTWPKLVFHVIIIILGLANLIAQFFM
